Reference: the supplement of paper PMC7661543
Differences between knockout arms are mostly noise.

Test system: SKBR3
Experiment: relative cell number vs DMSO control (72 h) (% of DMSO); higher = less growth inhibition (more cells)
Experimental: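 QMAP-Seq: a pool of 5 breast cancer cell lines (ZR-75-1, SKBR3, HCC-38, MDA-MB-231, BT-20), each carrying 12 doxycycline-inducible Cas9 sgRNA perturbations (11 knockouts plus non-targeting sgNT), was treated with compounds for 72 h at four 10-fold doses (10 nM-10 uM or 1 nM-1 uM range). Barcodes were amplified and sequenced, and cell number was interpolated from 293T spike-in standard curves. The result is expressed as % of the median of DMSO wells. Two biological replicates.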

Cc1sc2c(c1C)C(c1ccc(Cl)cc1)=N[C@@H](CC(=O)OC(C)(C)C)c1nnc(C)n1-2 [(+)-JQ1]
Conditions | relative cell number
sgRNA knockout: sgATF3, 10 nM | 117
sgRNA knockout: sgATF3, 100 nM | 119
sgRNA knockout: sgATF3, 1000 nM | 94.7
sgRNA knockout: sgATF3, 10000 nM | 71.3
sgRNA knockout: sgATF4, 10 nM | 105
sgRNA knockout: sgATF4, 100 nM | 125
sgRNA knockout: sgATF4, 1000 nM | 113
sgRNA knockout: sgATF4, 10000 nM | 75.5
sgRNA knockout: sgATF6, 10 nM | 113
sgRNA knockout: sgATF6, 100 nM | 104
sgRNA knockout: sgATF6, 1000 nM | 101
sgRNA knockout: sgATF6, 10000 nM | 57.5
sgRNA knockout: sgATG7, 10 nM | 91.8
sgRNA knockout: sgATG7, 100 nM | 119
sgRNA knockout: sgATG7, 1000 nM | 85.6
sgRNA knockout: sgATG7, 10000 nM | 52.6
sgRNA knockout: sgERN1, 10 nM | 122
sgRNA knockout: sgERN1, 100 nM | 115
sgRNA knockout: sgERN1, 1000 nM | 99.6
sgRNA knockout: sgERN1, 10000 nM | 73
sgRNA knockout: sgHSF1, 10 nM | 71.1
sgRNA knockout: sgHSF1, 100 nM | 128
sgRNA knockout: sgHSF1, 1000 nM | 105
sgRNA knockout: sgHSF1, 10000 nM | 69.4
sgRNA knockout: sgHSF2, 10 nM | 102
sgRNA knockout: sgHSF2, 100 nM | 106
sgRNA knockout: sgHSF2, 1000 nM | 99
sgRNA knockout: sgHSF2, 10000 nM | 66.4
sgRNA knockout: sgKEAP1, 10 nM | 118
sgRNA knockout: sgKEAP1, 100 nM | 96.5
sgRNA knockout: sgKEAP1, 1000 nM | 92.1
sgRNA knockout: sgKEAP1, 10000 nM | 47.58
sgRNA knockout: sgNFE2L2, 10 nM | 104.2
sgRNA knockout: sgNFE2L2, 100 nM | 111
sgRNA knockout: sgNFE2L2, 1000 nM | 91.6
sgRNA knockout: sgNFE2L2, 10000 nM | 59.9
sgRNA knockout: sgSLC35F2, 10 nM | 103
sgRNA knockout: sgSLC35F2, 100 nM | 105
sgRNA knockout: sgSLC35F2, 1000 nM | 94.6
sgRNA knockout: sgSLC35F2, 10000 nM | 50.2
sgRNA knockout: sgXBP1, 10 nM | 108
sgRNA knockout: sgXBP1, 100 nM | 102
sgRNA knockout: sgXBP1, 1000 nM | 89.7
sgRNA knockout: sgXBP1, 10000 nM | 73.7

Cc1ccc(F)c(NC(=O)Nc2ccc(-c3cccc4[nH]nc(N)c34)cc2)c1 [Linifanib]
Conditions | relative cell number
sgRNA knockout: sgATF3, 10 nM | 103
sgRNA knockout: sgATF3, 100 nM | 99.4
sgRNA knockout: sgATF3, 1000 nM | 110
sgRNA knockout: sgATF3, 10000 nM | 39.6
sgRNA knockout: sgATF4, 10 nM | 105
sgRNA knockout: sgATF4, 100 nM | 99.8
sgRNA knockout: sgATF4, 1000 nM | 112
sgRNA knockout: sgATF4, 10000 nM | 22.4
sgRNA knockout: sgATF6, 10 nM | 82.8
sgRNA knockout: sgATF6, 100 nM | 118
sgRNA knockout: sgATF6, 1000 nM | 112
sgRNA knockout: sgATF6, 10000 nM | 39.5
sgRNA knockout: sgATG7, 10 nM | 114
sgRNA knockout: sgATG7, 100 nM | 96.5
sgRNA knockout: sgATG7, 1000 nM | 85.8
sgRNA knockout: sgATG7, 10000 nM | 36.05
sgRNA knockout: sgERN1, 10 nM | 111
sgRNA knockout: sgERN1, 100 nM | 111
sgRNA knockout: sgERN1, 1000 nM | 109
sgRNA knockout: sgERN1, 10000 nM | 41.8
sgRNA knockout: sgHSF1, 10 nM | 96.7
sgRNA knockout: sgHSF1, 100 nM | 79
sgRNA knockout: sgHSF1, 1000 nM | 117
sgRNA knockout: sgHSF1, 10000 nM | 41.7
sgRNA knockout: sgHSF2, 10 nM | 84.8
sgRNA knockout: sgHSF2, 100 nM | 91.3
sgRNA knockout: sgHSF2, 1000 nM | 99.4
sgRNA knockout: sgHSF2, 10000 nM | 28.4
sgRNA knockout: sgKEAP1, 10 nM | 73
sgRNA knockout: sgKEAP1, 100 nM | 86.3
sgRNA knockout: sgKEAP1, 1000 nM | 106
sgRNA knockout: sgKEAP1, 10000 nM | 43.2
sgRNA knockout: sgNFE2L2, 10 nM | 87.4
sgRNA knockout: sgNFE2L2, 100 nM | 90.7
sgRNA knockout: sgNFE2L2, 1000 nM | 101
sgRNA knockout: sgNFE2L2, 10000 nM | 35.1
sgRNA knockout: sgSLC35F2, 10 nM | 85.2
sgRNA knockout: sgSLC35F2, 100 nM | 79.1
sgRNA knockout: sgSLC35F2, 1000 nM | 126
sgRNA knockout: sgSLC35F2, 10000 nM | 41.4
sgRNA knockout: sgXBP1, 10 nM | 97.7
sgRNA knockout: sgXBP1, 100 nM | 106
sgRNA knockout: sgXBP1, 1000 nM | 112
sgRNA knockout: sgXBP1, 10000 nM | 34.3

C=C1C(=O)O[C@H]2[C@H]1CC/C(C)=C/CC[C@@]1(C)O[C@@H]21 [Parthenolide]
Conditions | relative cell number
sgRNA knockout: sgATF3, 10 nM | 103
sgRNA knockout: sgATF3, 100 nM | 121
sgRNA knockout: sgATF3, 1000 nM | 121
sgRNA knockout: sgATF3, 10000 nM | 112.8
sgRNA knockout: sgATF4, 10 nM | 123
sgRNA knockout: sgATF4, 100 nM | 114
sgRNA knockout: sgATF4, 1000 nM | 93.8
sgRNA knockout: sgATF4, 10000 nM | 93.4
sgRNA knockout: sgATF6, 10 nM | 109
sgRNA knockout: sgATF6, 100 nM | 95.5
sgRNA knockout: sgATF6, 1000 nM | 114
sgRNA knockout: sgATF6, 10000 nM | 91.74
sgRNA knockout: sgATG7, 10 nM | 111
sgRNA knockout: sgATG7, 100 nM | 109
sgRNA knockout: sgATG7, 1000 nM | 75
sgRNA knockout: sgATG7, 10000 nM | 96.4
sgRNA knockout: sgERN1, 10 nM | 111
sgRNA knockout: sgERN1, 100 nM | 108
sgRNA knockout: sgERN1, 1000 nM | 118
sgRNA knockout: sgERN1, 10000 nM | 113
sgRNA knockout: sgHSF1, 10 nM | 93.9
sgRNA knockout: sgHSF1, 100 nM | 111
sgRNA knockout: sgHSF1, 1000 nM | 84.648
sgRNA knockout: sgHSF1, 10000 nM | 111.99
sgRNA knockout: sgHSF2, 10 nM | 108
sgRNA knockout: sgHSF2, 100 nM | 99.3
sgRNA knockout: sgHSF2, 1000 nM | 99.5
sgRNA knockout: sgHSF2, 10000 nM | 103
sgRNA knockout: sgKEAP1, 10 nM | 87.8
sgRNA knockout: sgKEAP1, 100 nM | 101
sgRNA knockout: sgKEAP1, 1000 nM | 88.6
sgRNA knockout: sgKEAP1, 10000 nM | 99.3
sgRNA knockout: sgNFE2L2, 10 nM | 105.5
sgRNA knockout: sgNFE2L2, 100 nM | 105
sgRNA knockout: sgNFE2L2, 1000 nM | 107
sgRNA knockout: sgNFE2L2, 10000 nM | 131
sgRNA knockout: sgSLC35F2, 10 nM | 111
sgRNA knockout: sgSLC35F2, 100 nM | 105
sgRNA knockout: sgSLC35F2, 1000 nM | 89.5
sgRNA knockout: sgSLC35F2, 10000 nM | 91.9
sgRNA knockout: sgXBP1, 10 nM | 112
sgRNA knockout: sgXBP1, 100 nM | 112
sgRNA knockout: sgXBP1, 1000 nM | 92.8
sgRNA knockout: sgXBP1, 10000 nM | 98
